Source: publication PMC9800732
No constants are given. Whether binding was seen depends on the method and setting. In cells and extracts the contact can be indirect. Some results given as binding are weak or reduced against the parent protein; the word gives no strength. Values belong to the molecule of their own block, whether it stands above or below them.

Tests used:
[1] = molecular target: Slit-Roundabout (Robo) GTPase-activating protein 2 (srGAP2) (human (endogenous in fresh human TNBC tissue)) (UniProt O75044); assay: co-IP; endogenous proteins in fresh human TNBC tissue; 0.5% NP-40 lysis buffer (50 mM Tris-HCl pH 8.0, 150 mM NaCl, 1 mM DTT), primary antibody 8 h then Protein-A beads 4 h at 4 °C
[2] = molecular target: PKCα (human (endogenous in fresh human TNBC tissue and TNBC cells)) (UniProt P17252); assay: co-IP; TNBC cells treated with 240 mOsm hypotonic medium for 300 s; endogenous PKCα immunoprecipitated, SDC4 detected by western blot; 0.5% NP-40 lysis buffer, Protein-A beads, 4 °C
[3] = molecular target: PKCα (human (endogenous in fresh human TNBC tissue and TNBC cells)) (UniProt P17252); assay: co-IP; TNBC cells treated with isotonic or hypotonic (260~280 mOsm) medium for 300 s; endogenous PKCα immunoprecipitated, SDC4 detected by western blot; 0.5% NP-40 lysis buffer, Protein-A beads, 4 °C

binding [1]: binds
Molecule: PKCα (from UniProt P17252 1-672) (enzyme)

binding [3]: binds
B1: Syndecan-4 (SDC4) (receptor, UniProt P31431 19-198)
chain: ESIRETEVIDPQDLLEGRYFSGALPDDEDVVGPGQESDDFELSGSGDLDDLEDSMIGPEVVHPLVPLDNHIPERAGSGSQVPTEPKKLEENEVIPKRISPVEESEDVSNKVSMSSTVQGSNIFERTEVLAALIVGGIVGILFAVFLILLLMYRMKKKDEGSYDLGKKPIYKKAPTNEFYA
binding [2]: no binding (condition: 240 mOsm hypotonic medium)
